Results from publication PMC7450122.
These are yes or no findings as the source states them, for the method shown. For part of these data: Binding seen in cells or lysates may run through a third protein. Some results given as binding are weak or reduced against the parent protein; the word gives no strength. For part of these data: Tags and fused reporters may be left off the sequences shown.

The chains behind the UniProt entries cited, without tags or fusion partners.
UniProt Q9UER7: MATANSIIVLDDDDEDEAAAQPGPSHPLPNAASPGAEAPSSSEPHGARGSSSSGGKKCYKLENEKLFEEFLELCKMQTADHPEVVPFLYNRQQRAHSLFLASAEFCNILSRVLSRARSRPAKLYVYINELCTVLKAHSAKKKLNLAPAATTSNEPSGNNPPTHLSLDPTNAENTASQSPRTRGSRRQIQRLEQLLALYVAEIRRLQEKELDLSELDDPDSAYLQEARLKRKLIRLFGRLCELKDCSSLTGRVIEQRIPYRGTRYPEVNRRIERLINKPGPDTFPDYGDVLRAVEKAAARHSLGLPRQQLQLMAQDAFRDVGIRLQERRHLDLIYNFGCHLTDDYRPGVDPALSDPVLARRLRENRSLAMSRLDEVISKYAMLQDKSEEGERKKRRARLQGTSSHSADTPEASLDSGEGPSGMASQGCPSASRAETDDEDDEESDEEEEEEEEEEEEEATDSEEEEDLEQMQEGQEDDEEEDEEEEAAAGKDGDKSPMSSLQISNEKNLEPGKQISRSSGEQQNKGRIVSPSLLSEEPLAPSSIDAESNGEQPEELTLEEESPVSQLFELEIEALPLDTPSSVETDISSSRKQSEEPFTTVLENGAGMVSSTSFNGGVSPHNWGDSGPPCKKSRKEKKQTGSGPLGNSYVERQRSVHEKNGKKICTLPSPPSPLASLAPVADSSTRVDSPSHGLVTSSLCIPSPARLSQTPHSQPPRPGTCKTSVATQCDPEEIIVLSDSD
UniProt Q04206: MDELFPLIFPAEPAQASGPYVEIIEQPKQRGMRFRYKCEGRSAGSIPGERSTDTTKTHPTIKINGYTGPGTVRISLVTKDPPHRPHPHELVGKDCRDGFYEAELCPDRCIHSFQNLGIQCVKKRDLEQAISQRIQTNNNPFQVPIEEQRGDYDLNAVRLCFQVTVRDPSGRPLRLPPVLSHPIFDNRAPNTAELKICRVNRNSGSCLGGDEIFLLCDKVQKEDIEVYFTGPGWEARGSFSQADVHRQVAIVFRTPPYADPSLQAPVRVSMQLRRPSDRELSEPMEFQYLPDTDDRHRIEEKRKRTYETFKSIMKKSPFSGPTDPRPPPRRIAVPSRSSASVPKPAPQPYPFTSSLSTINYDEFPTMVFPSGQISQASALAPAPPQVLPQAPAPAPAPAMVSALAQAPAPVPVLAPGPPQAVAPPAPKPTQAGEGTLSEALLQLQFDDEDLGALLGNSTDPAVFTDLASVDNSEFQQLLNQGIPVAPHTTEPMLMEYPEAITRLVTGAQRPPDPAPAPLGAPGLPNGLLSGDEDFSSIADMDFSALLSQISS

Columns and labels:
[1] = target: USP7 (deubiquitinase ubiquitin-specific peptidase 7), FLAG-tagged, wild type (UniProt Q93009); assay: co-IP; HEK293T cells co-transfected; whole cell lysates in RIPA buffer; FLAG-tagged USP7 immunoprecipitated with anti-FLAG overnight at 4 °C, partner detected by Western blot (Fig. 2B-F, Fig. 3A)
DAXX-FLAG = DAXX-FLAG (UniProt Q9UER7); assay: co-IP; HEK293T cells co-transfected; whole cell lysates in RIPA buffer; the partner of USP7 immunoprecipitated (anti-HA, anti-DAXX, anti-c-Rel, anti-RelB or anti-p65) overnight at 4 °C, USP7 detected by Western blot (Fig. 3B-E, Fig. 6C)
[2] = target: NF-kB p65 (RelA), expressed in HEK293T cells (UniProt Q04206); assay: as above
RelB-FLAG = target: T1, RelB-FLAG (UniProt Q01201); assay: as above
T1 sequence: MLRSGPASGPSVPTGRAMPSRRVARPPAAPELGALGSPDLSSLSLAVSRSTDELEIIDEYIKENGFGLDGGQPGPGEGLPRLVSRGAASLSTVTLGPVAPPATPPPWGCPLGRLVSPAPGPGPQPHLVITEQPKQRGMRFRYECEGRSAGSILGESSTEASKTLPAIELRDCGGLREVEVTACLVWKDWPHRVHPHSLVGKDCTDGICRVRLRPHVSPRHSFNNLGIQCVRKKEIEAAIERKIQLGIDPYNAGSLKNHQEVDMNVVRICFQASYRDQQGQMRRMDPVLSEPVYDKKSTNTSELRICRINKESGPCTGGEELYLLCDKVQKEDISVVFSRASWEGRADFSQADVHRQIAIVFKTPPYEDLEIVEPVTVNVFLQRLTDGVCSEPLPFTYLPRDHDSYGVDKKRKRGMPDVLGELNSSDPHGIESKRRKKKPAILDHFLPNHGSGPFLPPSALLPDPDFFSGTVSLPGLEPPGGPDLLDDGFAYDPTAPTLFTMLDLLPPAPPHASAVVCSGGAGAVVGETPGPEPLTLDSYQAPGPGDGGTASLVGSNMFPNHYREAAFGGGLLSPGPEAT

c-Rel-FLAG = target: T2, c-Rel-FLAG (UniProt Q04864); assay: as above
T2 sequence: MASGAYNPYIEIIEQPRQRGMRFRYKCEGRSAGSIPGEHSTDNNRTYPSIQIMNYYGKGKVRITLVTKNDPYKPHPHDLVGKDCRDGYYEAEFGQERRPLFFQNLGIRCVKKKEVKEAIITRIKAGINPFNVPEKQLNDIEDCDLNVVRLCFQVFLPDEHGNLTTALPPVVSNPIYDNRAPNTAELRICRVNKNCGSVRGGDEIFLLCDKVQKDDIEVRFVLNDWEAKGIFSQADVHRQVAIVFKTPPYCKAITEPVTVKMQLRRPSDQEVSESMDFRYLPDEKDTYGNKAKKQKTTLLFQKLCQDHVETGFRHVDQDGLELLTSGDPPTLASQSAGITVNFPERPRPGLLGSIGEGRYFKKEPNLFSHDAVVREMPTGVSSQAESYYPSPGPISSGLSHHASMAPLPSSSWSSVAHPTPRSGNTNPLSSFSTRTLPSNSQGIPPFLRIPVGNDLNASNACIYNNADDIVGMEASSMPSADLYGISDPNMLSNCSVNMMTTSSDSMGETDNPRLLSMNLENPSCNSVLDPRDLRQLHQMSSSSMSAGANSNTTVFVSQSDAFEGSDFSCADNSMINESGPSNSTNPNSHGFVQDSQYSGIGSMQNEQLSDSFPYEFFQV

[3] = target: T3, USP7 peptide 753-770 (Ubl2 domain), parent peptide of the alanine scan; assay: peptide or protein array; alanine-scanning SPOT arrays of selected 18-mer USP7 peptides; overlaid with GST-p65; anti-GST, quantified with a digital chemiluminescence scanner as percent of the unsubstituted parent peptide on the same array; less than 60% taken as important; both purified
T3 sequence (peptide): LDKALDELMDGDIIVFQK

NF-kB p65 (RelA), expressed in HEK293T cells (from UniProt Q04206 1-551)
binding [1]: binds

USP7 (deubiquitinase ubiquitin-specific peptidase 7), FLAG-tagged, wild type (from UniProt Q93009 1-1102) (enzyme)
binding (DAXX-FLAG): binds | binding [2]: binds | binding (RelB-FLAG): binds | binding (c-Rel-FLAG): binds

GST-p65, purified recombinant (from UniProt Q04206 1-551)
binding [3]: binds
